According to the supplement of paper PMC12823440, “Inhibitors supercharge kinase turnover through native proteolytic circuits” (Nature, 2025):
Where a name gives a salt, the structure may show the parent alone. The list shows a part of the results. The calls rarely recur for the same compound in another form.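 Kinases were expressed as nanoluciferase fusions in K562 cells and luminescence was read every 4 h between 2 and 18 h as percent of control, DMSO set to 100% and a positive control to 0%. A time point counts as decreased when the signal drops significantly (2 sigma). The hit call is the authors' own, does not follow from the count of time points alone, and its rule is not shown.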

Sequences of proteins named here, by UniProt entry; tags and fusion partners are left off. A change or cut given only in a name is not applied to a line headed by its entry.
UniProt P36888, whole entry: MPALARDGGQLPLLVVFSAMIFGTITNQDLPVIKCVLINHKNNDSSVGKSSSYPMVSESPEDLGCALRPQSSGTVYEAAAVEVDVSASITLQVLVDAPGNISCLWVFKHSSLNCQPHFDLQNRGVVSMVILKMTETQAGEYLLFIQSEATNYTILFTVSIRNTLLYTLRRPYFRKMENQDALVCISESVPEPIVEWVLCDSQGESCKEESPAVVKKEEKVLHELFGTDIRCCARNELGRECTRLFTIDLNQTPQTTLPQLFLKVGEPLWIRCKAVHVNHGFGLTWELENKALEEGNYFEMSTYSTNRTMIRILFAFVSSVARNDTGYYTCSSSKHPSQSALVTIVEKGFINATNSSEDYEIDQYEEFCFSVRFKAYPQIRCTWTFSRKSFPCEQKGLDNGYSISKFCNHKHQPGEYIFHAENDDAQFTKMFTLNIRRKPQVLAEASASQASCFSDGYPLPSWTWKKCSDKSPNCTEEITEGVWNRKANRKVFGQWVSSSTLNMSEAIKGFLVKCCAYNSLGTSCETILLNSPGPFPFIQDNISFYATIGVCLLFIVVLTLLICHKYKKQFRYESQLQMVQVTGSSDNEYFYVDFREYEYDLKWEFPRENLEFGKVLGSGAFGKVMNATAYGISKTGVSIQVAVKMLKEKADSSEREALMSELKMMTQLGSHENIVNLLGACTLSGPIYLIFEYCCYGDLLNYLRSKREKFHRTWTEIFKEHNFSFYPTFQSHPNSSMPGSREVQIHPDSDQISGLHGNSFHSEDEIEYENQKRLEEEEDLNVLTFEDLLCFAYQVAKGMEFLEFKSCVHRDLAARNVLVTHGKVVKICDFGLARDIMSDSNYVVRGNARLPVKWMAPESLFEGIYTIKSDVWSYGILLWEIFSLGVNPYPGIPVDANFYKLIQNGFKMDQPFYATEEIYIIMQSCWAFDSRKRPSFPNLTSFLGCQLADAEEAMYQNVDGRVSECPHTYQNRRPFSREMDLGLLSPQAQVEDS
UniProt P06241, whole entry, looked up: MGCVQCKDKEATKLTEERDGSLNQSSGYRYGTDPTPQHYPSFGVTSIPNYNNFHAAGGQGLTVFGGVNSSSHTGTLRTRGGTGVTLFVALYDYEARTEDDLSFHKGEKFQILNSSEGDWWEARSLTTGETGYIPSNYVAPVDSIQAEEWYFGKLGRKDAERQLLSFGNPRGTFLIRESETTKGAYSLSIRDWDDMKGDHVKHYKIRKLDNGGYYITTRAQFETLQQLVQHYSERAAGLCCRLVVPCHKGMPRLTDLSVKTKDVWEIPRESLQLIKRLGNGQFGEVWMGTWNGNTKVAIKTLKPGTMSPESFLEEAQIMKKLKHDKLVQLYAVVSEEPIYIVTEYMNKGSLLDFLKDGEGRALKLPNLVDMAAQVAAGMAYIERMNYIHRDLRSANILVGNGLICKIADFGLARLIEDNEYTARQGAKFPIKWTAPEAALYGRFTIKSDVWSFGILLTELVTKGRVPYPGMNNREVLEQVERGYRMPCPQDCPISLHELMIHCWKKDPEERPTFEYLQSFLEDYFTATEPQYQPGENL
UniProt P14616: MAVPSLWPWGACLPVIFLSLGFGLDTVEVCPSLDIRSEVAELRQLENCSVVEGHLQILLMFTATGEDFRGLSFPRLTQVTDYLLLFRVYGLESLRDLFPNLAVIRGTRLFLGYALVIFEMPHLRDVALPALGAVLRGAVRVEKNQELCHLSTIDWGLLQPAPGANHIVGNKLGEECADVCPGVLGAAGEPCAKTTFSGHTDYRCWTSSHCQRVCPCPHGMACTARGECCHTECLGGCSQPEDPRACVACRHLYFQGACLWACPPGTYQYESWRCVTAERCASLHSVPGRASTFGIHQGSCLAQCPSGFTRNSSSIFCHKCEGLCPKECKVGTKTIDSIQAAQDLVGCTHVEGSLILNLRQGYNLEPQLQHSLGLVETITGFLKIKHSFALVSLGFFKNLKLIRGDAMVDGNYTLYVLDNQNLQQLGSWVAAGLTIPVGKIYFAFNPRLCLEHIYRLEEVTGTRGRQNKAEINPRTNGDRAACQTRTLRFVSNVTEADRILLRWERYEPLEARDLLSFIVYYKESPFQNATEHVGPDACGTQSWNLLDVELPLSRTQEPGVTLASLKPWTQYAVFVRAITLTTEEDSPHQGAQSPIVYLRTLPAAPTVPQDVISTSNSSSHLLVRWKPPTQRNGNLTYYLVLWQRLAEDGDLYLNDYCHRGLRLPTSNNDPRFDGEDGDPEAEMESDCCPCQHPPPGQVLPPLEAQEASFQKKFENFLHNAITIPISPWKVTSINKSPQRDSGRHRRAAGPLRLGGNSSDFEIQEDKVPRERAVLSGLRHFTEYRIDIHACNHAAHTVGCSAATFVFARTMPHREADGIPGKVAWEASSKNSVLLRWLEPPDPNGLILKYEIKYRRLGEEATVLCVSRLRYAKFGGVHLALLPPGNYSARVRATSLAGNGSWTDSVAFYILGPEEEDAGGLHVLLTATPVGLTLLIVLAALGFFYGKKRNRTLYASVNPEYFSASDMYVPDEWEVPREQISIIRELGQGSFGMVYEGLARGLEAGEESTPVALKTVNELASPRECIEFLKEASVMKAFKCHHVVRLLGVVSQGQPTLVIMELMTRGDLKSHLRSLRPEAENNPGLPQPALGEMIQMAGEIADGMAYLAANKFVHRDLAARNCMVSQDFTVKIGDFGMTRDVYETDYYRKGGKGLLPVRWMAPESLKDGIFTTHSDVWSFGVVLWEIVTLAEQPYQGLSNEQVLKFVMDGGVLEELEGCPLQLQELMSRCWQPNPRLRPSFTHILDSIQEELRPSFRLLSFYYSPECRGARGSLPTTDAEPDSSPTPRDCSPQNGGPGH
UniProt P06239: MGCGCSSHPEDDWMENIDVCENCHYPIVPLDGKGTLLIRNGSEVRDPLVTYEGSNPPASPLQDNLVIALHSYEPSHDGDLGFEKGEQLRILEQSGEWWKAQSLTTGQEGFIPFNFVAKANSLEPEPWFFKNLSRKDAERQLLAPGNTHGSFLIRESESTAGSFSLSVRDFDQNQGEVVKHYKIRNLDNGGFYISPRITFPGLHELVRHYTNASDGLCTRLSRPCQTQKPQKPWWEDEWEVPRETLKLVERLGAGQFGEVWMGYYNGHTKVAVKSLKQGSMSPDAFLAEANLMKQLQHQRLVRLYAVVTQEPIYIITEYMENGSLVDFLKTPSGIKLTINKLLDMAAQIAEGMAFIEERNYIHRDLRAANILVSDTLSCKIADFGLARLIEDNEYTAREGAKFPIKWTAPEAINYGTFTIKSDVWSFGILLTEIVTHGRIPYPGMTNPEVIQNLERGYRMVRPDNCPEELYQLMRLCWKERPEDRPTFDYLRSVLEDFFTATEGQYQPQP
UniProt P53667: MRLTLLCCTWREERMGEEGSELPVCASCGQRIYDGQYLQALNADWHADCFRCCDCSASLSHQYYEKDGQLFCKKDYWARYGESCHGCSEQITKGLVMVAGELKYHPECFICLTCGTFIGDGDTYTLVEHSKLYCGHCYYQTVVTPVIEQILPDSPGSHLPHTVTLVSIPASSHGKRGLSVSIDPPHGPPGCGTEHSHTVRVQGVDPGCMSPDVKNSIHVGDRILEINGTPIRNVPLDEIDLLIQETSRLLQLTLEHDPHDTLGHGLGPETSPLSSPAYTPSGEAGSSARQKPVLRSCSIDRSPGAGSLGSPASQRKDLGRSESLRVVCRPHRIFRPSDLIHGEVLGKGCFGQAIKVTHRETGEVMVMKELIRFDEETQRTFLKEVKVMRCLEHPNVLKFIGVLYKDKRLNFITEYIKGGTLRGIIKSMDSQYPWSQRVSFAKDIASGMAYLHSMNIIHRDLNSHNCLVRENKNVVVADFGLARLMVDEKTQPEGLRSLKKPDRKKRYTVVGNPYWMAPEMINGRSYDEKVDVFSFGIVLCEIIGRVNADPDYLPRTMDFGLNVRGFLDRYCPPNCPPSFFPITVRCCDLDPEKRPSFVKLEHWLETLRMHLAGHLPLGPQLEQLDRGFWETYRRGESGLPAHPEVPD
UniProt P53671: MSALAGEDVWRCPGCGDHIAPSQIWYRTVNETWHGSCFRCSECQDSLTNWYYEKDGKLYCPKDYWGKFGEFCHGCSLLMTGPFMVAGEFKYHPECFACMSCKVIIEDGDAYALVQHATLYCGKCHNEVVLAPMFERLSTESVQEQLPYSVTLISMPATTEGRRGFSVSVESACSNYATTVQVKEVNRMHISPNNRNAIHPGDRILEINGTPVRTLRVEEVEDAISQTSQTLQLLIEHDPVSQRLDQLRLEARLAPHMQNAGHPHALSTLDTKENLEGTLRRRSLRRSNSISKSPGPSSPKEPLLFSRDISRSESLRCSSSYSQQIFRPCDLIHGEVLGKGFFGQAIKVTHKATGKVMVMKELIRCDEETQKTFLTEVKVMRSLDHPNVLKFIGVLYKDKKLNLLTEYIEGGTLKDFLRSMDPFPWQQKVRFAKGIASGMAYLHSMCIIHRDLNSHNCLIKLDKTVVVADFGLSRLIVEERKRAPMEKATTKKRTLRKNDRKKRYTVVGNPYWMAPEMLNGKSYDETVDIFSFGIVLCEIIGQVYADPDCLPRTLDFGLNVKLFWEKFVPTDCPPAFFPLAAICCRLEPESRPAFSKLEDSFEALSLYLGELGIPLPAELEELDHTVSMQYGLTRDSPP
UniProt P07948: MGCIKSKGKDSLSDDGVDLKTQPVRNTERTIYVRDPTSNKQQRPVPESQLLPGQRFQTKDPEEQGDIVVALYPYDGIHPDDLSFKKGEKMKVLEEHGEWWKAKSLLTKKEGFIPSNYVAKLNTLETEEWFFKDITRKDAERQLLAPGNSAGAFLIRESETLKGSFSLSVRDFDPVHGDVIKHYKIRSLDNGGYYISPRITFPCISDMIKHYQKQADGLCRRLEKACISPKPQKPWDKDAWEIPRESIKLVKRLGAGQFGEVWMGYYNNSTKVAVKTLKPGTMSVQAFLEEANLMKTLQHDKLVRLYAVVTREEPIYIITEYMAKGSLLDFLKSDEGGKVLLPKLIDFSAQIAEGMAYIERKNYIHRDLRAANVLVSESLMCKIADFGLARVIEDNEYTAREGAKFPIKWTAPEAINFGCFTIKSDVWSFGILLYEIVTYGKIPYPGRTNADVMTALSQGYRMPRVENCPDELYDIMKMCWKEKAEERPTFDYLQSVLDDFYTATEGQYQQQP
UniProt P28482, whole entry: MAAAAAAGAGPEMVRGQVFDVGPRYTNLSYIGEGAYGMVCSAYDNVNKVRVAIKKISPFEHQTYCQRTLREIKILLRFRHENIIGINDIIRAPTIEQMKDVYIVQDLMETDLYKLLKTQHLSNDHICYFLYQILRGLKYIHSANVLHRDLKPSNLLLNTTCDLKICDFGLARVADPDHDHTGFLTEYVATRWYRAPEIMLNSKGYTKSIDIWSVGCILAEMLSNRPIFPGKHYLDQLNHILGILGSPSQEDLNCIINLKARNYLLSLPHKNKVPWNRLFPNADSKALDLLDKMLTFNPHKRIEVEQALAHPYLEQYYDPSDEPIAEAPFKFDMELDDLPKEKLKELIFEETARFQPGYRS
UniProt P31152, whole entry: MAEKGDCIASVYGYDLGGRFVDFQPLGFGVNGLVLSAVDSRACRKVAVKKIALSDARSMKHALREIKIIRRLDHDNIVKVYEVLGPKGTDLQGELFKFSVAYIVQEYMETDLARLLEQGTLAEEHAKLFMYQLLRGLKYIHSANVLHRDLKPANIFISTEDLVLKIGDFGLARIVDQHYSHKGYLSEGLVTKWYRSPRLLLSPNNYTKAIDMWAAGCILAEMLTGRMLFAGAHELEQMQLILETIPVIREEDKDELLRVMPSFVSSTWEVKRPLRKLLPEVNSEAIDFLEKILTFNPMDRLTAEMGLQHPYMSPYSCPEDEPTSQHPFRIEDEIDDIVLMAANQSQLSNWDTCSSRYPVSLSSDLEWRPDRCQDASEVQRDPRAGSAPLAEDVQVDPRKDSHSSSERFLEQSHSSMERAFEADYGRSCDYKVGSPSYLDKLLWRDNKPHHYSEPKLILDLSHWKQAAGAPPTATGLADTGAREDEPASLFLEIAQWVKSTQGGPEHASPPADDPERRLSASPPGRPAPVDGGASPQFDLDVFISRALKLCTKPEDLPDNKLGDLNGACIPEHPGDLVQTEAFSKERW
UniProt P49137, whole entry, looked up: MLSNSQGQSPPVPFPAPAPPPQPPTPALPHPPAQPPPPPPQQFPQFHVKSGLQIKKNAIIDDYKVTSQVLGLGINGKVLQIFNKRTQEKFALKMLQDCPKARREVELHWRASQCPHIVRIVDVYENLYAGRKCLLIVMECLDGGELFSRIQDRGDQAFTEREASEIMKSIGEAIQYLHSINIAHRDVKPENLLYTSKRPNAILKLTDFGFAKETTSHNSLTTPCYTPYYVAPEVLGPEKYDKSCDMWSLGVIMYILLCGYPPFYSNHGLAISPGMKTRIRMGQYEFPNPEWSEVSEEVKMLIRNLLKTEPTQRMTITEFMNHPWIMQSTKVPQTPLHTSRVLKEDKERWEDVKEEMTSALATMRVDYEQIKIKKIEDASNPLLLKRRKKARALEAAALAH

Tests used:
Assay in all cases: number of time points (of 5) at which kinase-Nluc abundance scored as decreased, DMSO-normalised (count); higher = more persistent destabilization
Settings in all cases: K562; 2-18 h
FLT3 = FLT3 (UniProt P36888)
FYN = FYN (UniProt P06241)
GSK3A = GSK3A (UniProt P49840)
HER2 = HER2 (UniProt P04626)
INSRR = INSRR (UniProt P14616)
IRAK3 = IRAK3 (UniProt Q9Y616)
JAK1 = JAK1 (UniProt P23458)
LCK = LCK (UniProt P06239)
LIMK1 = LIMK1 (UniProt P53667)
LIMK2 = LIMK2 (UniProt P53671)
LMTK2 = LMTK2 (UniProt Q8IWU2)
LYN = LYN (UniProt P07948)
MAP2K1 = MAP2K1 (UniProt Q02750)
MAP2K2 = MAP2K2 (UniProt P36507)
MAP4K2 = MAP4K2 (UniProt Q12851)
MAPK1 = MAPK1 (UniProt P28482)
MAPK4 = MAPK4 (UniProt P31152)
MAPKAPK2 = MAPKAPK2 (UniProt P49137)
MKNK1 = MKNK1 (UniProt Q9BUB5)
NTRK2 = NTRK2 (UniProt Q16620)

Measured: number of time points

CC1CCc2c(cc(Br)c(F)c2Br)N1C=O (configuration not stated) (10 µM)
0: all assays above

C=CC(=O)Nc1cccc(Nc2nc(Nc3ccc(NC4CN(CCF)C4)cc3OC)ncc2C(F)(F)F)c1 (2.5 µM)
1: HER2
0: all other assays above

Cc1cc(Nc2ncnc3ccc(NC4=NC(C)(C)CO4)cc23)ccc1Oc1ccn2ncnc2c1 [Tucatinib] (2.5 µM)
0: all assays above

C=C(CC[C@@H](C(=O)O)[C@H]1[C@H](O)C[C@@]2(C)C3=C(CC[C@]12C)[C@@]1(C)CC[C@H](OC(C)=O)C(C)(C)[C@@H]1CC3)C(C)C [Pachymic acid] (10 µM)
0: all assays above

CCC(C)N1c2ccccc2C(=O)N(C)c2cnc(Nc3ccc(C(=O)N4CCC(N5CCN(C)CC5)CC4)cc3OC)nc21 (configuration not stated) (2.5 µM)
0: all assays above

Nc1ccc(-c2cnc(N)c(-c3ccc(Cl)cc3)c2)cn1 (10 µM)
0: all assays above

COc1cc(Nc2ncc(F)c(Nc3ccc4c(n3)NC(=O)C(C)(C)O4)n2)cc(OC)c1OC [R406 (free base)] (10 µM)
not listed: FYN | LCK
0: all other assays above

Oc1cc(O)c2cc(O)c(-c3cc(O)c(O)c(O)c3)[o+]c2c1 [Delphinidin (chloride)] (10 µM)
2: IRAK3 | MAPK1
4: LIMK2
1: FYN | LYN
0: all other assays above

COc1ccc2c(OCc3nnc4ccc(-c5ccccc5)nn34)ccnc2c1 (2 µM)
0: all assays above

O=S(=O)(NCCCN1c2ccccc2CCc2ccc(Cl)cc21)c1ccc(OC(F)(F)F)cc1 (2.5 µM)
0: all assays above

COc1cc(Nc2ncc(F)c(Nc3ccc4c(n3)N(COP(=O)(O)O)C(=O)C(C)(C)O4)n2)cc(OC)c1OC [Fostamatinib Disodium] (10 µM)
4: GSK3A
3: LIMK1
1: FYN
0: all other assays above

CCCS(=O)(=O)Nc1ccc(F)c(C(=O)c2c[nH]c3ncc(-c4ccc(Cl)cc4)cc23)c1F [Vemurafenib] (10 µM)
1: FYN | HER2
2: LIMK1
0: all other assays above

FC(F)(F)c1ccc(CNc2ccc(Cc3c[nH]c4ncccc34)cn2)cc1 (10 µM)
0: all assays above

CS(=O)(=O)Nc1cc(-c2ccc3ncnc(Nc4ccc(F)c(Cl)c4)c3c2)cnc1Cl (2.5 µM)
1: FYN
2: FLT3 | IRAK3
0: all other assays above

Cc1ccc(OCCSc2ncccn2)c(Br)c1 [ZLN024 (hydrochloride)] (10 µM)
0: all assays above

O=C(NOCC(O)CO)c1cc(Br)c(F)c(F)c1Nc1ccc(I)cc1F (configuration not stated) (2.5 µM)
0: all assays above

CN1CCN(c2cnc3c(C4CCN(C(=O)c5ccc(OC(F)(F)F)cc5N)CC4)ncnc3c2)CC1 (10 µM)
0: all assays above

CC1(C)C(O[C@@H]2OC[C@@H](O)[C@H](O)[C@H]2O)CC[C@]23CC24CC[C@]2(C)[C@@H]([C@@]5(C)CC[C@@H](C(C)(C)O)O5)[C@H](O)C[C@@]2(C)C4C[C@@H](O[C@@H]2O[C@H](CO)[C@@H](O)[C@H](O)[C@H]2O)C13 (some centres not stated) [Astragaloside IV] (10 µM)
0: all assays above

NC(=O)c1nnc(N[C@@H]2CCCC[C@@H]2N)nc1Nc1cccc2cc[nH]c12 (10 µM)
2: LIMK1
1: INSRR
0: all other assays above

CCS(=O)(=O)Nc1ccc2[nH]c(O)c(C(=Nc3ccc(CN4CCCCC4)cc3)c3ccccc3)c2c1 [Hesperadin] (2.5 µM)
4: LIMK1
1: HER2 | LIMK2 | MKNK1 | NTRK2
3: FLT3 | FYN | INSRR | IRAK3 | JAK1 | LMTK2
0: all other assays above

Oc1ccc(Nc2nc(-c3ccc(Cl)cc3)cs2)cc1 (10 µM)
0: all assays above

COc1cc(Nc2ncc(F)c(Nc3ccc4c(n3)NC(=O)C(C)(C)O4)n2)cc(OC)c1OC (10 µM)
not listed: FYN | LCK
0: all other assays above

COc1ccc(Cl)c(Nc2nc3ccccc3nc2NS(=O)(=O)c2cccc(NC(=O)C(C)(C)N)c2)c1 [Pilaralisib] (10 µM)
0: all assays above

C=CC(=O)Nc1cc(C)ccc1Nc1nc(Nc2cc(OC)ncc2C)ncc1C(F)(F)F (10 µM)
0: all assays above

COc1cc2nccc(Oc3ccc(NC(=O)NC4CC4)c(Cl)c3)c2cc1C(N)=O [Lenvatinib] (10 µM)
1: HER2
0: all other assays above

C[C@@H]1CCN(C(=O)CC#N)C[C@@H]1N(C)c1ncnc2[nH]ccc12 [Tofacitinib] (10 µM)
2: LMTK2
not listed: JAK1
0: all other assays above

Nc1nc(F)nc2c1ncn2[C@@H]1O[C@H](CO)[C@@H](O)[C@@H]1O [Fludarabine] (10 µM)
0: all assays above

CCNc1nc(Nc2cc(F)c(C(=O)N3CCOCC3)cc2OC)ncc1C(F)(F)F [GNE-7915 (tosylate)] (10 µM)
0: all assays above

Cn1ncc(Cl)c1-c1cc(C(=O)N[C@H](CN)Cc2ccc(F)c(F)c2)oc1Cl [Uprosertib] (10 µM)
0: all assays above

COc1cc2c(N3CCN(C(=O)Nc4ccc(OC(C)C)cc4)CC3)ncnc2cc1OCCCN1CCCCC1 [Tandutinib (hydrochloride)] (10 µM)
not listed: FLT3
0: all other assays above

COc1cc2c(N3CCN(C(=O)Nc4ccc(OC(C)C)cc4)CC3)ncnc2cc1OCCCN1CCCCC1 [Tandutinib] (10 µM)
not listed: FLT3
0: all other assays above

O=C(Nc1cn[nH]c1-c1ccccn1)c1nn(C2CCNCC2)cc1Cl (10 µM)
0: all assays above

CC1=C(C(=O)O)N2C(=O)[C@@H](NC(=O)[C@H](N)C3=CCC=CC3)[C@H]2SC1 [Cephradine] (10 µM)
0: all assays above

O=C(NCCN1CCCC1)c1cc(-c2ccc(CN3CCOCC3)cc2)nc2ccc(F)cc12 (10 µM)
0: all assays above

CC(C)(C)c1cc(O)ccc1O (10 µM)
0: all assays above

CC(C)(O)CNc1ncc(-c2ccnc(Nc3ccnc(Cl)c3)n2)c(CC2CC2)n1 (2.5 µM)
0: all assays above

COc1cc(Nc2ncc(F)c(Nc3ccc4c(n3)N(COP(=O)(O)O)C(=O)C(C)(C)O4)n2)cc(OC)c1OC [Fostamatinib (disodium hexahydrate)] (10 µM)
2: LIMK1
0: all other assays above

Cc1ccc(C(=O)Nc2ccc(Oc3cc4cnn(C)c4cc3-c3cn[nH]c3)c(F)c2)c(=O)n1-c1ccc(F)cc1 [Merestinib dihydrochloride] (2.5 µM)
3: LIMK1
0: all other assays above

C[C@@H]1CCN(C(=O)CC#N)C[C@@H]1N(C)c1ncnc2[nH]ccc12 [Tofacitinib (citrate)] (10 µM)
not listed: JAK1
0: all other assays above

CN(C)CCCOc1ccc(-c2ccc3ncc4c(c3c2)n(C2CCOCC2)c(=O)n4C)cn1 (2 µM)
1: LIMK1
0: all other assays above

C[C@@H](c1ccc(F)cc1)n1nnc2cnc3ccc(-c4ccc5ocnc5c4)cc3c21 (10 µM)
0: all assays above

C[C@@]1(c2ncncc2F)NC(=O)c2cc(-c3cn[nH]c3)ccc21 (10 µM)
0: all assays above

CN1CCC(c2cc(-c3ccncc3)c(-c3ccc(F)cc3)[nH]2)CC1 (10 µM)
0: all assays above

O=C([O-])c1cc2ccccc2c(Cc2c(O)c(C(=O)[O-])cc3ccccc23)c1O.[Na+].[Na+] [Pamoic acid (disodium)] (10 µM)
0: all assays above
